Laboratory results: publication PMC10985095
These are yes or no findings as the source states them, for the method shown. Binding seen in cells or lysates may run through a third protein. Some entries that bind do so weakly or less than the wild type.

Protein sequences, listed by entry. Tags and fused reporters are not part of them. Lines headed by an entry give the natural chain unless they say otherwise; changes in a name come on top. Chains listed by the source or under a name are the forms on record and can include a tag or linker.
UniProt Q96EB6: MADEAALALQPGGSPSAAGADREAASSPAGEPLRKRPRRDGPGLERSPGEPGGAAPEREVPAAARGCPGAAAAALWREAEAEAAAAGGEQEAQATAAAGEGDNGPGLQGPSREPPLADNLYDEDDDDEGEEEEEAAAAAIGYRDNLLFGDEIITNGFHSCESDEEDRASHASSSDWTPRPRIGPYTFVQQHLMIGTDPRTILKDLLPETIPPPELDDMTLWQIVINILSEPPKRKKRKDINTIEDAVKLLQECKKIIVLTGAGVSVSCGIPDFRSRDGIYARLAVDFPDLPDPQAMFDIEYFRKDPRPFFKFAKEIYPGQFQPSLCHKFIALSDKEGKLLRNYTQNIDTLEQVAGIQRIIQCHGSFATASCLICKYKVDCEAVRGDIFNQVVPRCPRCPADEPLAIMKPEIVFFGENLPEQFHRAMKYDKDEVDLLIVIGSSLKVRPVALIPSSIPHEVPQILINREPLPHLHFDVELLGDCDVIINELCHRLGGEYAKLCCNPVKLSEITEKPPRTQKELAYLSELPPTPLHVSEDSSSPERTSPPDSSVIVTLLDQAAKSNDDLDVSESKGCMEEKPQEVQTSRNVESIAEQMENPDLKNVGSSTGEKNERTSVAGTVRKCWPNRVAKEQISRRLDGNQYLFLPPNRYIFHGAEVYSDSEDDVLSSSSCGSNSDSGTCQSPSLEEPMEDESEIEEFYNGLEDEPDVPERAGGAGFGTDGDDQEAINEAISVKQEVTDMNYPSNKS
SIRT1 KR (construct of the AROS co-immunoprecipitation) (Q96EB6, form named): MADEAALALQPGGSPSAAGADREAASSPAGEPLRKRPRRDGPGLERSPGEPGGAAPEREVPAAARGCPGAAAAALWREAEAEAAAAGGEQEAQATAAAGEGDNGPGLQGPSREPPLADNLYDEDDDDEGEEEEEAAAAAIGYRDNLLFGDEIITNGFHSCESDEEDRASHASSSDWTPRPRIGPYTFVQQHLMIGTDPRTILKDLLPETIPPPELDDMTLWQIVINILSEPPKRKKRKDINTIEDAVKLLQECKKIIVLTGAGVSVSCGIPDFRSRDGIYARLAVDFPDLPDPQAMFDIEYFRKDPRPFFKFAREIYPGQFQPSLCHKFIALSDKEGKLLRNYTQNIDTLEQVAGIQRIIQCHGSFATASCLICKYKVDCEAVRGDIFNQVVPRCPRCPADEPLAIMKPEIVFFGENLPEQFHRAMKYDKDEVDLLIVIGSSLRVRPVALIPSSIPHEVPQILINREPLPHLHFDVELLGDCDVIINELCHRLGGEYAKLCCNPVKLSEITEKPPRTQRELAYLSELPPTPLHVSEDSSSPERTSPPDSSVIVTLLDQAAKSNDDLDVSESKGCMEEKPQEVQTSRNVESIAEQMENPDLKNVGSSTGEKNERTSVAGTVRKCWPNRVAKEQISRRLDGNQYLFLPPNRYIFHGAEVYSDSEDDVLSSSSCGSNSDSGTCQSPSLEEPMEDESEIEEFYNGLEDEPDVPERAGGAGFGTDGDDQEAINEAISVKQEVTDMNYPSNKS

Experiments:
Assay in all cases: co-IP; HEK293T coexpressing AROS and SIRT1 WT or SIRT1 KR, in the absence or presence of the ISG15-conjugating system; reciprocal IP with antibodies against V5 or Xpress
[1] = biological target: ISGylated SIRT1 WT (construct of the AROS co-immunoprecipitation, coexpressed with the ISG15-conjugating system) (UniProt Q96EB6)
[2] = biological target: SIRT1 KR (construct of the AROS co-immunoprecipitation) (human) (UniProt Q96EB6)
[3] = biological target: SIRT1 WT (construct of the AROS co-immunoprecipitation) (human) (UniProt Q96EB6)

binding [1]: binds
binding [2]: binds
binding [3]: binds
B1: Active regulator of SIRT1 (AROS) (protein, UniProt Q86WX3 1-136)
chain: MSAALLRRGLELLAASEAPRDPPGQAKPRGAPVKRPRKTKAIQAQKLRNSAKGKVPKSALDEYRKRECRDHLRVNLKFLTRTRSTVAESVSQQILRQNRGRKACDRPVAKTKKKKAEGTVFTEEDFQKFQQEYFGS
